Results as given in patent US20050267156A1, “Broadspectrum 2-amino-benzothiazole sulfonamide hiv protease inhibitors” (Tibotec Pharmaceuticals Ltd., priority 2002, published 2005).
At least one read-out could not be matched to a standard name with certainty.

What was measured:
Pharmacokinetics in rats = format: in vivo, Whistar rats; conditions: rat
Experimental: (§1) The pharmacokinetic properties of some compounds of formula (I) were tested on rats and dogs. The compounds were evaluated in Whistar rats, source Iffa Credo, weighing approximately 350 g. Before dosing the animals were fasted overnight (approximately 12 h fasting period). The compounds were dissolved in DMSO or PEG 400. The results represented in the table concern the results from the oral or intra-peritoneal dosing of the compounds. Blood was sampled at 30 min, 1 h, 2 h, 3 h, no pre-dose sample was taken. The amount of the compound in the biological sample was determined using LC-MS. In the table below “or” means oral dosing, “ip” means intraperitoneal dosing, “mpk” means mg per kilogram.

Pharmacokinetics in dogs = format: in vivo; conditions: or, dog
Experimental: as §1

Compound	time of Cmax (Pharmacokinetics in rats; ip, DMSO)	time of Cmax (Pharmacokinetics in rats; or, DMSO)	time of Cmax (Pharmacokinetics in rats; or, PEG400)	time of Cmax (Pharmacokinetics in dogs; DMSO)	time of Cmax (Pharmacokinetics in dogs; PEG400)
CNc1nc2ccc(S(=O)(=O)N(CC(C)C)C[C@@H](O)[C@H](Cc3ccccc3)NC(=O)OC3COC4OCCC34)cc2s1 (stereo partly drawn) [Compound 4, {(1S,2R)-1-benzyl-2-hydroxy-3-[isobutyl-(2-methylamino-benzothiazole-6-sulfonyl)-amino]-propyl}-carbamic acid hexahydro-furo[2,3-b]furan-3-yl ester]	30 min	30 min	30 min	–	–
CNc1nc2ccc(S(=O)(=O)N(CC(C)C)C[C@@H](O)[C@H](Cc3ccccc3)NC(=O)COc3c(C)cccc3C)cc2s1 [Compound 15, N-{(1S,2R)-1-benzyl-2-hydroxy-3-[isobutyl-(2-methylamino-benzothiazole-6-sulfonyl)-amino]-propyl}-2-(2,6-dimethyl-phenoxy)-acetamide]	30 min	–	180 min	–	–
CNc1nc2ccc(S(=O)(=O)N(CC(C)C)C[C@@H](O)[C@H](Cc3ccccc3)NC(=O)OCc3cncs3)cc2s1 [Compound 18, {(1S,2R)-1-benzyl-2-hydroxy-3-[isobutyl-(2-methylamino-benzothiazole-6-sulfonyl)-amino]-propyl}-carbamic acid thiazol-5-ylmethyl ester]	240 min	30 min	15 min	60 min	30 min
CNc1nc2ccc(S(=O)(=O)N(CC(C)C)C[C@@H](O)[C@H](Cc3ccccc3)NC(=O)COc3c(C)cc(CN)cc3C)cc2s1 [Compound 25, 2-(4-aminomethyl-2,6-dimethyl-phenoxy)-N-{(1S,2R)-1-benzyl-2-hydroxy-3-[isobutyl-(2-methylamino-benzothiazole-6-sulfonyl)-amino]-propyl}-acetamide]	30 min	–	–	–	–
CNc1nc2ccc(S(=O)(=O)N(CC(C)C)C[C@@H](O)[C@H](Cc3ccccc3)NC(=O)OCc3cnco3)cc2s1 [Compound 28, {(1S,2R)-1-benzyl-2-hydroxy-3-[isobutyl-(2-methylamino-benzothiazole-6-sulfonyl)-amino]-propyl}-carbamic acid oxazol-5-ylmethyl ester]	30 min	30 min	60 min	–	–
